No constants are given. Whether binding was seen depends on the method and setting. In cells and extracts the contact can be indirect. For some of these results: A result given as binding can be weak or reduced; the word gives no strength. Sequences can lack the tags named with a protein.
B1: HA-tagged SHIP1 (Src homology 2-containing inositol-5'-phosphatase 1), full-length (enzyme, UniProt Q9ES52 1-1191)
chain: MPAMVPGWNHGNITRSKAEELLSRAGKDGSFLVRASESIPRAYALCVLFRNCVYTYRILPNEDDKFTVQASEGVPMRFFTKLDQLIDFYKKENMGLVTHLQYPVPLEEEDAIDEAEEDTVESVMSPPELPPRNIPMSAGPSEAKDLPLATENPRAPEVTRLSLSETLFQRLQSMDTSGLPEEHLKAIQDYLSTQLLLDSDFLKTGSSNLPHLKKLMSLLCKELHGEVIRTLPSLESLQRLFDQQLSPGLRPRPQVPGEASPITMVAKLSQLTSLLSSIEDKVKSLLHEGSESTNRRSLIPPVTFEVKSESLGIPQKMHLKVDVESGKLIVKKSKDGSEDKFYSHKKILQLIKSQKFLNKLVILVETEKEKILRKEYVFADSKKREGFCQLLQQMKNKHSEQPEPDMITIFIGTWNMGNAPPPKKITSWFLSKGQGKTRDDSADYIPHDIYVIGTQEDPLGEKEWLELLRHSLQEVTSMTFKTVAIHTLWNIRIVVLAKPEHENRISHICTDNVKTGIANTLGNKGAVGVSFMFNGTSLGFVNSHLTSGSEKKLRRNQNYMNILRFLALGDKKLSPFNITHRFTHLFWLGDLNYRVELPTWEAEAIIQKIKQQQYSDLLAHDQLLLERKDQKVFLHFEEEEITFAPTYRFERLTRDKYAYTKQKATGMKYNLPSWCDRVLWKSYPLVHVVCQSYGSTSDIMTSDHSPVFATFEAGVTSQFVSKNGPGTVDSQGQIEFLACYATLKTKSQTKFYLEFHSSCLESFVKSQEGENEEGSEGELVVRFGETLPKLKPIISDPEYLLDQHILISIKSSDSDESYGEGCIALRLETTEAQHPIYTPLTHHGEMTGHFRGEIKLQTSQGKMREKLYDFVKTERDESSGMKCLKNLTSHDPMRQWEPSGRVPACGVSSLNEMINPNYIGMGPFGQPLHGKSTLSPDQQLTAWSYDQLPKDSSLGPGRGEGPPTPPSQPPLSPKKFSSSTANRGPCPRVQEARPGDLGKVEALLQEDLLLTKPEMFENPLYGSVSSFPKLVPRKEQESPKMLRKEPPPCPDPGISSPSIVLPKAQEVESVKGTSKQAPVPVLGPTPRIRSFTCSSSAEGRMTSGDKSQGKPKASASSQAPVPVKRPVKPSRSEMSQQTTPIPAPRPPLPVKSPAVLQLQHSKGRDYRDNTELPHHGKHRQEEGLLGRTAMQ
B2: HA-tagged TRAF6 (TNF receptor-associated factor 6) (protein, UniProt P70196 1-530)
chain: MSLLNCENSCGSSQSSSDCCAAMAASCSAAVKDDSVSGSASTGNLSSSFMEEIQGYDVEFDPPLESKYECPICLMALREAVQTPCGHRFCKACIIKSIRDAGHKCPVDNEILLENQLFPDNFAKREILSLTVKCPNKGCLQKMELRHLEDHQVHCEFALVNCPQCQRPFQKCQVNTHIIEDCPRRQVSCVNCAVSMAYEEKEIHDQSCPLANIICEYCGTILIREQMPNHYDLDCPTAPIPCTFSVFGCHEKMQRNHLARHLQENTQLHMRLLAQAVHNVNLALRPCDAASPSRGCRPEDPNYEETIKQLESRLVRQDHQIRELTAKMETQSMYVGELKRTIRTLEDKVAEMEAQQCNGIYIWKIGNFGMHLKSQEEERPVVIHSPGFYTGRPGYKLCMRLHLQLPTAQRCANYISLFVHTMQGEYDSHLPWPFQGTIRLTILDQSEALIRQNHEEVMDAKPELLAFQRPTIPRNPKGFGYVTFMHLEALRQGTFIKDDTLLVRCEVSTRFDMGGLRKEGFQPRSTDAGV

Legend:
Assay in all cases: co-IP; HEK 293T cells cotransfected with tagged murine constructs; IP from lysate with anti-Flag or anti-HA antibodies, immunoblot
[1] = target: T1, Flag-tagged SLAMF7 (signaling lymphocyte activation molecular family 7), full-length (mouse) (UniProt Q8BHK6)
T1 sequence: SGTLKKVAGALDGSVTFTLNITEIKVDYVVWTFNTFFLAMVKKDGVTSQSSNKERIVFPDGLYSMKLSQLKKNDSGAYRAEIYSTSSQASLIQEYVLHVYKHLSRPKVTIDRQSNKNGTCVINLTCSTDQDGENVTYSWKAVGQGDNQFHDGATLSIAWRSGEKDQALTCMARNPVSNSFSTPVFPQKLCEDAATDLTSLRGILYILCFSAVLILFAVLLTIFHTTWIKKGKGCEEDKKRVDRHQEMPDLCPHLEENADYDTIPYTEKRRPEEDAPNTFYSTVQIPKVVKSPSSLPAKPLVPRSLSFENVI

[2] = target: SLAMF7-Δextra (SLAMF7 lacking the extracellular domain) (mouse)
Y261F-SLAMF7 (mouse) = target: Y261F-SLAMF7 (mouse)
[3] = target: SLAMF7-Δtrans (SLAMF7 lacking the transmembrane domain) (mouse)
[4] = target: SLAMF7-Δintra (SLAMF7 lacking the intracellular domain) (mouse)
Y281F-SLAMF7 (mouse) = target: Y281F-SLAMF7 (mouse)
Y266F-SLAMF7 (mouse) = target: Y266F-SLAMF7 (mouse)

Molecule | binding [1] | binding [2] | binding (Y261F-SLAMF7 (mouse)) | binding [3] | binding [4] | binding (Y281F-SLAMF7 (mouse)) | binding (Y266F-SLAMF7 (mouse))
SHIP1-ΔSH2 (SHIP1 lacking the SH2 domain) (mouse) (domain or fragment) | binds | – | – | – | – | – | –
SHIP1-ΔP-rich (SHIP1 lacking the proline-rich C-terminal domain) (mouse) (domain or fragment) | binds | – | – | – | – | – | –
B1 | – | no binding | binds | no binding | no binding | no binding | –
B2 | – | binds | binds | binds | no binding | binds | binds
